Results: patent publication US20230257458A1
Results are given in words; binding and its absence hold for the method and conditions named. Some entries that bind do so weakly or less than the wild type. Where a sequence is shown, tags or fusion partners need not be part of it.

Target: T1, IL-11R-His protein (UniProt Q14626)
T1 sequence (looked up): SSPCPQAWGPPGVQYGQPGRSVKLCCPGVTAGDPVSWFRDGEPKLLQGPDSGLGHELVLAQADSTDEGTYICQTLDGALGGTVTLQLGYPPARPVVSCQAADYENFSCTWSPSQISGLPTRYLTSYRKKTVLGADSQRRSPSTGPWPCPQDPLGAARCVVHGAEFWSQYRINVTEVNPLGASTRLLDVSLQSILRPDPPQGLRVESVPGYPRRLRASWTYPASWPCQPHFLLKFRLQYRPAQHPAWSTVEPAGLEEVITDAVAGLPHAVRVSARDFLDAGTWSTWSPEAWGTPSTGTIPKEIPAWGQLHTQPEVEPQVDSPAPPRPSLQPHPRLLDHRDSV
Test: ELISA: IL-11R-His coated, IL-11-Fc added without antibody, detection with HRP goat anti-IgG-Fc

B1: IL-11-Fc protein (Fc fusion, UniProt P20809 22-199, looked up, not shown: a dimerising Fc or GST)
chain: PGPPPGPPRVSPDPRAELDSTVLLTRSLLADTRQLAAQLRDKFPADGDHNLDSLPTLAMSAGALGALQLPGVLTRLRADLLSYLRHVQWLRRAGGSSLKTLEPELGTLQARLDRLLRRLQLLMSRLALPQPPPDPPAPPLAPPSSAWGGIRAAHAILGGLHLTLDWAVRGLLLLKTRL
With B1 the binding was “binds”.
